From publication PMC6509187
No constants are given. Whether binding was seen depends on the method and setting. In cells and extracts the contact can be indirect. Some results given as binding are weak or reduced against the parent protein; the word gives no strength. Tags and fused reporters may be left off the sequences shown.

Chains of the proteins cited; added tags and fusions are not shown.
UniProt Q00655: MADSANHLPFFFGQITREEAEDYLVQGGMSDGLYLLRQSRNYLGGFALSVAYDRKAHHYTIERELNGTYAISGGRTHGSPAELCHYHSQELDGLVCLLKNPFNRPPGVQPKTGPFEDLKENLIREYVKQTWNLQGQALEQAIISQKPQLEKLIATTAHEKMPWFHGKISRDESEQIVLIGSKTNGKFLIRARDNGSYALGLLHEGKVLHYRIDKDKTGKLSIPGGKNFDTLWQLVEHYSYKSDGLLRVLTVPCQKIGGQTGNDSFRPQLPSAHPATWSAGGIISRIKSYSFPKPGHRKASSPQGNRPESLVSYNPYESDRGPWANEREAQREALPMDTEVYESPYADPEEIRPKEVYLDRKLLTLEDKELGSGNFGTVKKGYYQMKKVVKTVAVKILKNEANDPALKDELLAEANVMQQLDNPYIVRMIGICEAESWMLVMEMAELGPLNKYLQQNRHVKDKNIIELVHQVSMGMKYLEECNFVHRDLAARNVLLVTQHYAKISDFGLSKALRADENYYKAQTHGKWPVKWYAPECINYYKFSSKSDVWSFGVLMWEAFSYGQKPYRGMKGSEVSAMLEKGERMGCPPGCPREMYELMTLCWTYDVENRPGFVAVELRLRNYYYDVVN

Target: Syk-myc-his (in HEK-293T cells) (pig) (UniProt Q00655)
Assay: co-IP; HEK-293T cells cotransfected with 3×Flag-DAP12 and Syk-myc-his for 48 h; IP with anti-Myc or anti-Flag MAb; NP-40 lysis buffer

B1: 3×Flag-DAP12 (in HEK-293T cells) (protein, UniProt Q9TU45 26-108)
chain: QRECSCSAVSPGILAGIVLGDLVLTLLIALAVYSLGRLVPRTRGAVDVTRKQHIAETESAYQELQGQRSDVYSDLNTQRQYYK
binding: binds
